# Laboratory results taken from PubChem BioAssay AID540276 (National Center for Advancing Translational Sciences (NCATS), 2011).
# The whole screen tested about 300,000 compounds, of which about 5,400 (1.8%) were called active. This list was built around the results that the source calls inconclusive (neither active nor inactive); the mix of calls is not that of the screen. Calls follow the shape of the full dose curve; tested in HEK293 cells. Potencies of inconclusive entries are doubtful fits and often do not repeat.
# Assay: qHTS for inhibitors of binding or entry into cells for Marburg Virus
# Conditions: Marburg virus pseudotyped entry inhibition, cell reporter; activity change, negative = inhibition: at 37.8 µM (top of the series) unless noted
# % is scaled to controls: 0 for no effect and ±100 for the full control effect; potency is read from the fitted curve at half-maximal effect.
SMILES,Potency,"activity change, negative = inhibition"
O=S(=O)(c1ccc(Br)cc1F)N1CCC(O)CC1,"inconclusive: 0.125 µM [activator, full curve, poor fit]",–
CN(C)c1ccc(/C=C(\Cl)c2nc3ccccc3s2)cc1,"inconclusive: 11.2 µM [inhibitor, partial curve, poor fit]",–
COCCNC(=O)CCn1nc(-c2ccc(Cl)cc2)c2ccccc2c1=O,"inconclusive: 3.55 µM [activator, partial curve, poor fit]",–
C/C(=N\NC(=O)c1ccccc1O)c1cccs1,"inconclusive: 2.82 µM [inhibitor, full curve, poor fit]",–
COc1ccc(NS(=O)(=O)c2ccc(N3CCOCC3)c(NC(=O)C(C)C)c2)cc1,"inconclusive: 11.2 µM [inhibitor, partial curve]",–
COc1cccc(NC(=O)CN(C)C(=O)c2cc3c(s2)CCC(C)C3)c1 (centres undefined),"inconclusive: 1.41 µM [inhibitor, single point]",–
CCOC(=O)C1(Cc2cccc(OC)c2)CCCN(C(=O)CCN2CCCO2)C1 (centres undefined),"inconclusive: 5.62 µM [activator, single point]",–
COc1ccc(N(CC(=O)N/N=C/c2ccco2)S(=O)(=O)c2ccccc2)cc1,inactive,–
CC(=NNC(=O)c1cc(C)oc1C)c1ccc(Br)s1,inactive,–
CC(=O)c1ccc(N2Cc3ccccc3/C2=N\C(=O)Nc2ccc(Cl)cc2)cc1,"inconclusive: 1.41 µM [activator, partial curve]",–
O=C(Nc1ccc2c(c1)OCCO2)C1CC(c2ccccc2Cl)=NO1 (centres undefined),inactive,–
CCC(C(=O)N1CCOCC1)n1nc(C)n2c(cc3cc(C)ccc32)c1=O (centres undefined),inactive,–
O=C(Nc1ccc2oc(-c3cccnc3)nc2c1)c1ccccc1F,"inconclusive: 12.6 µM [activator, partial curve, poor fit]",–
CCN(CC(=O)NCc1ccc(Cl)cc1)C(=O)CSc1cc(C)ccc1C,"inconclusive: 35.5 µM [inhibitor, single point]",–
CC(C)(C)Cc1nc2ccccc2n1CCc1ccccc1,"inconclusive: 29.1 µM [inhibitor, single point]",–
Fc1ccccc1COc1ccc(Br)cc1CNCc1ccncc1,"inconclusive: 20 µM [inhibitor, single point]",–
N#C/C(=C/c1ccc(Br)s1)C(=O)NCCc1c[nH]c2ccccc12,"inconclusive: 1.41 µM [activator, partial curve]",–
COc1ccc(-c2nc(SCC(=O)NC3CCCC3)c(-c3ccc(F)cc3)[nH]2)cc1OC,"inconclusive: 11.2 µM [inhibitor, partial curve, poor fit]",–
CN(C)S(=O)(=O)c1cccc(C(=O)N2CCc3ccccc32)c1,"inconclusive: 5.62 µM [activator, single point]",–
Clc1ccc(C2NCCc3sccc32)cc1 (centres undefined),inactive,–
CC(=O)Nc1c(O)[nH]c2ccccc12,inactive,–
Cc1ccc(-c2ccc(CCC(=O)O)n2NC(N)=S)cc1,"inconclusive: 2 µM [activator, partial curve, poor fit]",–
CCOC(=O)Cc1csc(NC(=S)NC(=O)c2cccc([N+](=O)[O-])c2)n1,"inconclusive: 22.4 µM [activator, single point]",–

# Rewritten with bars between the fields: three of the compounds above.
SMILES | Potency | activity change, negative = inhibition
O=C(Nc1ccc2c(c1)OCCO2)C1CC(c2ccccc2Cl)=NO1 (centres undefined) | inactive | –
Fc1ccccc1COc1ccc(Br)cc1CNCc1ccncc1 | inconclusive: 20 µM [inhibitor, single point] | –
N#C/C(=C/c1ccc(Br)s1)C(=O)NCCc1c[nH]c2ccccc12 | inconclusive: 1.41 µM [activator, partial curve] | –

# Further records follow.

SMILES,Potency,"activity change, negative = inhibition"
CC(=O)Nc1nc2ccccc2n1Cc1ccccc1,inactive,–
Cc1c(C)n(CC(O)CN2CCOCC2)c2ccccc12 (centres undefined),inactive,–
CCCCCCCn1ccc(=N)cc1,"inconclusive: 7.08 µM [inhibitor, full curve]",–
Cc1cc(C)n(-c2ccc(N3CCOCC3)nn2)n1,inactive,–
Cc1ccc2nc(-c3ccccc3)cc(C(=O)NNC(=O)c3csc(N4CCOCC4)n3)c2c1,"inconclusive: 12.6 µM [inhibitor, partial curve]",–
COc1cccc(C(=O)NCCS(=O)(=O)N2CCc3ccccc3C2)c1,inactive,–
CCOC(=O)c1c(-c2cccc(C)c2)csc1NC(=O)c1c(-c2ccccc2)noc1C,active: 0.316 µM,–
CCc1ccc(/C=C2/SC(=S)N(CC(=O)Nc3nc4ccccc4s3)C2=O)cc1,inactive,–
CCN(CC)S(=O)(=O)c1cc(OCC(N)=O)c(C)cc1Cl,"inconclusive: 4.47 µM [activator, single point]",–
CCOc1ccc(OCC)c(NC(=O)C2CCCN(S(=O)(=O)c3cccs3)C2)c1 (centres undefined),"inconclusive: 20 µM [inhibitor, partial curve, poor fit]",–
CSCC(=O)N1CCc2ccc(NC(=O)c3ccccc3Cl)cc2C1,"inconclusive: 7.94 µM [inhibitor, full curve, poor fit]",–
CN1CCN(c2ccc(NC(=S)NC(=O)c3cccc4c(Br)cccc34)cc2)CC1,"inconclusive: 0.562 µM [inhibitor, partial curve, poor fit]",–
COc1ccc(CNC(=O)c2cc3cccc(OC)c3oc2=N)cc1,"inconclusive: 35.5 µM [inhibitor, single point]",–
Cc1ccc(S(=O)(=O)N2CCC(C)CC2)cc1C(=O)NCc1ccccn1,"inconclusive: 25.1 µM [inhibitor, single point]",–
OCCCCNCc1ccc(OCc2ccccc2)cc1,"inconclusive: 0.708 µM [activator, partial curve, poor fit]",–
COc1ccc(-c2ccc(SC)nn2)cc1,"inconclusive: 1.41 µM [inhibitor, partial curve, poor fit]",–
CCOC(=O)C1(C(F)(F)F)N=C(C(F)(F)F)Nc2cc(C)c(C)cc21 (centres undefined),"inconclusive: 0.0731 µM [inhibitor, full curve, poor fit]",–
N=c1sc2c(n1Cc1ccccc1)CCCC2,"inconclusive: 29.1 µM [inhibitor, single point]",–
COc1cc(CN(CCc2c(C)[nH]c3ccc(C)cc23)C(=S)NC(C)(C)C)cc(OC)c1OC,"inconclusive: 29.1 µM [inhibitor, single point]",–
COC(=O)c1ccc(/C=N/N2CCN(Cc3ccccc3)CC2)cc1,–,inconclusive: 21.9% [activator]
O=C(O)CCn1cc(C=C2C(=O)NC(=S)NC2=O)c(-c2cccc(Br)c2)n1,"inconclusive: 20 µM [activator, single point]",–
CCCC1=Nc2cc(C(=O)NCc3ccccc3)ccc2Sc2ccccc21,"inconclusive: 3.55 µM [inhibitor, partial curve, poor fit]",–
CCOc1ccc(C2c3cc(OC)c(OC)cc3CC(=O)N2c2ccc(OC)cc2)cc1 (centres undefined),"inconclusive: 5.8 µM [inhibitor, full curve]",–

SMILES,Potency,"activity change, negative = inhibition"
Cc1ccc(C(C)C)c(OCC(=O)Nc2ccc3c(c2)nc(CCNC(=O)c2ccco2)n3C)c1,inactive,–
O=c1c2ccccc2nc(/C=C/c2ccc(O)cc2)n1-c1cccc(O)c1,"inconclusive: 1.78 µM [inhibitor, partial curve, poor fit]",–
CC(=O)Nc1nc(COc2ccccc2)cs1,inactive,–
COc1ccc(NC(=O)c2cccc3c(=O)c4c([nH]c23)CCCC4)cc1,inactive,–
COCCNC(=S)N/N=C(\C)CCc1ccc2c(c1)OCO2,inactive,–
Cc1cccc(C(=O)Nc2ccc(CC(=O)O)cc2)c1,"inconclusive: 25.9 µM [inhibitor, single point]",–
O=C(O)CCC(=O)N1CCc2cc(S(=O)(=O)NCc3ccc(F)cc3)ccc21,inactive,–
O=c1nc(-c2ccccc2)c2cc(Br)ccc2[nH]1,inactive,–
COc1ccc(C(C)=O)cc1CSc1nnc(Nc2ccccc2)s1,active: 18.4 µM,–
CCOC(=O)c1c(C)[nH]c(C(=O)OCc2csc(CC(=O)Nc3ccccc3C)n2)c1C,"inconclusive: 2.82 µM [inhibitor, partial curve, poor fit]",–
CC1CCCC(C)N1CC(O)COCC1COc2ccccc2O1 (centres undefined),"inconclusive: 14.1 µM [inhibitor, single point]",–
COc1ccc(N2CCN(C(c3ccccc3OC)c3nnnn3C3CCCC3)CC2)cc1 (centres undefined),"inconclusive: 35.5 µM [inhibitor, partial curve, poor fit]",–
Cc1cccc(C)c1OCc1nnc2c3cnn(C)c3ncn12,"inconclusive: 4.61 µM [activator, full curve]",–
COc1ccc(OC)c(N/C=C/C(=C(C#N)C#N)N(C)C)c1,"inconclusive: 1.26 µM [inhibitor, full curve, poor fit]",–
CN1CCN(NC(=O)c2ccc(COc3ccccc3Br)o2)CC1,"inconclusive: 11.2 µM [inhibitor, partial curve]",–
COc1ccc(N(Cc2cc3cc(OC)ccc3[nH]c2=O)S(C)(=O)=O)cc1,"inconclusive: 1.46 µM [inhibitor, partial curve, poor fit]",–
Cc1nc2c(=O)n(C)c(=O)n(C)c2nc1Cl,active: 8.2 µM,–
CCCCC(=O)Nc1ccc(NC(=S)NC(=O)CCCCl)cc1OC,"inconclusive: 20 µM [activator, partial curve, poor fit]",–
O=C(Oc1ccccc1)c1ccc(COC(=O)c2cnccn2)cc1,"inconclusive: 0.1 µM [activator, full curve, poor fit]",–
COCCn1cc(C(=O)NCCCN2CCC(C)CC2)c2c3ccccc3n(C)c2c1=O,"inconclusive: 9.2 µM [inhibitor, partial curve, poor fit]",–
COc1nc(-c2ccccc2)ccc1-c1noc(-c2ccccc2)n1,"inconclusive: 22.4 µM [activator, single point]",–
Cc1ccccc1NC(=O)C12CC3CCC1(C)C3(C)CO2 (centres undefined),"inconclusive: 0.631 µM [inhibitor, full curve, poor fit]",–
CCc1ccc(NS(=O)(=O)c2ccc3c(c2)CCN3C(=O)CCC(=O)O)cc1,"inconclusive: 10 µM [activator, partial curve]",–
